Data set [1] can be described thus: general procedure: Fmoc solid-phase peptide synthesis; Rink Amide; HBTU/DIEA. The settings on record: whole synthesis, scale 0.2 mmol.
The subject of another data set is hCMEC/D3 cells. The data set can be described thus: BBB permeability study, TEER measurement of barrier integrity. Format: in vitro ADME, human. The settings on record: hCMEC/D3 monolayer on 0.4 μm insert, 40 μM in HBSS apical, 37 °C, 100 rpm; variance vs start; mean ± SD, n = 3.

For part of these data: Strings that start with PEPTIDE1 are HELM notation: dots part the residues, brackets hold end groups and non-standard residues.

The source of these data is article PMC7795729 (International Journal of Molecular Sciences, 2020).

With “PEPTIDE1{K.L.A.L.K.L.A.L.K.A.L.K.A.A.L.K.L.A.[am]}$$$$V2.0”, in data set [1] (220 nm), the “final HPLC purity” value is given as 100%. In data set [1], this compound registered an isolated mass of 16.0 mg.
As for `Nc1c2c(nc3ccccc13)CCCC2` [Tacrine, reference compound], in the data set with hCMEC/D3 cells, the “ΔTEER at t=0 min” value is given as 0 ± 27 Ω/cm^2 and the “ΔTEER at t=240 min” value is -36 ± 27 Ω/cm^2.
Taken in the same sequence, the figures for `CC(C)C[C@H](NC(=O)[C@H](C)NC(=O)[C@H](CCCCN)NC(=O)[C@H](CC(C)C)NC(=O)[C@H](C)NC(=O)[C@H](CC(C)C)NC(=O)[C@H](CCCCN)NC(=O)[C@H](CC(C)C)NC(=O)[C@H](C)NC(=O)[C@H](CC(C)C)NC(=O)[C@H](CCCCN)NC(=O)[C@@H](N)Cc1cn(CC(=O)Nc2c3c(nc4ccccc24)CCCC3)nn1)C(=O)N[C@@H](CCCCN)C(=O)N[C@@H](C)C(=O)N[C@@H](C)C(=O)N[C@@H](CC(C)C)C(=O)N[C@@H](CCCCN)C(=O)N[C@@H](CC(C)C)C(=O)N[C@@H](C)C(N)=O` [MAP-Tacrine conjugate] were 0 ± 21 Ω/cm^2 and -29 ± 33 Ω/cm^2.
